Data on one molecule can be found in paper PMC10924340.

These are yes or no findings as the source states them, for the method shown. In cells and extracts the contact can be indirect. Some entries that bind do so weakly or less than the wild type. Tags and fused reporters may be left off the sequences shown.

The test addresses T1, Flag-LATS2 (large tumor suppressor kinase 2) (UniProt Q9NRM7).
T1 sequence: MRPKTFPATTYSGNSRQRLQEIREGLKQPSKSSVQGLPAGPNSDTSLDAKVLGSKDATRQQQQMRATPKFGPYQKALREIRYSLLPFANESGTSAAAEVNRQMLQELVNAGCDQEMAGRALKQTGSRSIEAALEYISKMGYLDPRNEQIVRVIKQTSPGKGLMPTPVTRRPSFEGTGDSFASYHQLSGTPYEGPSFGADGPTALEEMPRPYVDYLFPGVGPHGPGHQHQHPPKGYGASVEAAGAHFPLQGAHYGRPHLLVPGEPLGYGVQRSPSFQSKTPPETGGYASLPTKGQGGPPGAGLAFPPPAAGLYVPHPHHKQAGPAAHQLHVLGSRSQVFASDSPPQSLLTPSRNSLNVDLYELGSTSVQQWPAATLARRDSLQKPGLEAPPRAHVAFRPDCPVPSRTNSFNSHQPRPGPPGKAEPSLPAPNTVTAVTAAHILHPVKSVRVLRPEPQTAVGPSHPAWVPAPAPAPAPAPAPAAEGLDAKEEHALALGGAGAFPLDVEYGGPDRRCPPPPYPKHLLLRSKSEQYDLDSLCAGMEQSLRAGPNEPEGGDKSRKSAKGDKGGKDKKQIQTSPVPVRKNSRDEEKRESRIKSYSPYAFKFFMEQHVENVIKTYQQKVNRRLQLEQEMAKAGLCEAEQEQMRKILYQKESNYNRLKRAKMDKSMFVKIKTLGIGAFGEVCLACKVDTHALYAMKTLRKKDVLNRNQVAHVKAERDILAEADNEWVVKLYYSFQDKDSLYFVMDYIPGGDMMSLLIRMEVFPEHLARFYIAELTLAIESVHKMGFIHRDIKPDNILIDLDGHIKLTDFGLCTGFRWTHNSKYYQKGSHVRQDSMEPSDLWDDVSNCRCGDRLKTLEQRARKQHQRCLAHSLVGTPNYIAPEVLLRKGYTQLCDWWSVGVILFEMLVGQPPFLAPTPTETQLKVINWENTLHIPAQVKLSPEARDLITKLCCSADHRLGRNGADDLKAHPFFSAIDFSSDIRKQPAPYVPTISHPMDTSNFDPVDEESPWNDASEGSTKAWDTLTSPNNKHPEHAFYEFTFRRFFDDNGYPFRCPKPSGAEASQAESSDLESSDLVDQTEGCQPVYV
The test is described as follows: co-IP; cells transfected, lysed in IP buffer after 48 h, mixed with pre-incubated beads for 16 h, washed three times, protein on beads denatured and western blotted. (A western blot detects proteins with antibodies after separation by electrophoresis.)

B1: SIAH2 (seven in absentia homolog 2), E3 ligase (enzyme, UniProt O43255 1-324)
chain: MSRPSSTGPSANKPCSKQPPPQPQHTPSPAAPPAAATISAAGPGSSAVPAAAAVISGPGGGGGAGPVSPQHHELTSLFECPVCFDYVLPPILQCQAGHLVCNQCRQKLSCCPTCRGALTPSIRNLAMEKVASAVLFPCKYATTGCSLTLHHTEKPEHEDICEYRPYSCPCPGASCKWQGSLEAVMSHLMHAHKSITTLQGEDIVFLATDINLPGAVDWVMMQSCFGHHFMLVLEKQEKYEGHQQFFAIVLLIGTRKQAENFAYRLELNGNRRRLTWEATPRSIHDGVAAAIMNSDCLVFDTAIAHLFADNGNLGINVTISTCCP
As for B1, the binding result is on record as “binds”.
